From article PMC12167799, “The role of human Shu complex in ATP-dependent regulation of RAD51 filaments during homologous recombination–associated DNA damage response” (The Journal of Biological Chemistry, 2025)

Key:
Assay in all cases: SEC; co-purification: 6xHis-TEV-SWSAP1 and untagged hSWS1 co-expressed in insect cells, Ni-HiTrap FF, tag cleaved, then gel filtration on Superdex 200 10/300 GL and SDS-PAGE
[1] = molecular target: human SWS1-associated protein 1 (SWSAP1), wildtype (human)
[2] = molecular target: human SWSAP1 D96A (Walker B mutant) (human)
[3] = molecular target: human SWSAP1 K18A (Walker A mutant) (human)

Measured: binding

B1: human SWS1 (protein, UniProt Q19AV6 1-140)
chain: MAVVLPAVVEELLSEMAAAVQESARIPDEYLLSLKFLFGSSATQALDLVDRQSITLISSPSGRRVYQVLGSSSKTYTCLASCHYCSCPAFAFSVLRKSDSILCKHLLAVYLSQVMRTCQQLSVSDKQLTDILLMEKKQEA
binds: [1] | [2] | [3]

These are yes or no findings as the source states them, for the method shown. Binding seen in cells or lysates may run through a third protein. Binding calls can cover weak binding; strength is not graded here.
